Binding screen against folded nucleic acids

From ROBIN, a set of small-molecule microarray screens (doi:10.1002/anie.202211358).

Targets (5′ to 3′):
PreQ1: PreQ1 riboswitch RNA pseudoknot, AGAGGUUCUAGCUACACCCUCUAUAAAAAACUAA. From B. subtilis. About 24,000 compounds screened, about 170 hits.
SAM-II: SAM-II riboswitch RNA pseudoknot, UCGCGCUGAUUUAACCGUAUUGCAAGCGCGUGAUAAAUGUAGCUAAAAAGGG. About 21,000 compounds screened, about 200 hits.
TPP: TPP riboswitch RNA three-way junction, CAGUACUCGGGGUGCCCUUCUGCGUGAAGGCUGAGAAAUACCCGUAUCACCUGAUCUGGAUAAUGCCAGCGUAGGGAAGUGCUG. About 24,000 compounds screened, about 160 hits.

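Compounds were printed on reactive glass slides in duplicate spots, a dye-labelled oligonucleotide was laid over them, and the fluorescence left after washing was read. The data file lists only calls. An earlier report of the laboratory on the PreQ1, TPP and SAM-II riboswitches (doi:10.1038/s41467-019-09493-3) used 1 µM RNA for 2 h and required a mean Z-score above 3 (spot signal-to-noise against the whole library), a score well above that on a control array, and duplicate spots agreeing (coefficient of variation under 100); it then also set aside compounds that hit other targets, which this list keeps. The cut-offs behind this list may differ. The calls come from the array alone, and fixing a compound to the slide can hide its binding.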
Key: Y = hit, N = tested without a hit.
Compounds were drawn at random from those tested, without regard to their results.
A dash means that no call is listed here.

| # | SMILES | PreQ1 | SAM-II | TPP |
|---|---|---|---|---|
| 1 | `O=C(c1ccc(N2CCCCC2)cc1)N1CCC(Cc2cccc(CO)c2)C1` (stereo not drawn) | N | N | N |
| 2 | `O=C(NCc1cn2ccccc2n1)c1ccc2c(c1)[nH]c(=O)n2[C@H]1CC[C@H](O)CC1` | N | N | N |
| 3 | `COc1ccc(-c2cc(Nc3ccccc3)nc(C)n2)cc1` | N | - | N |
| 4 | `O=C(NC1CCC1)c1cccc(S(=O)(=O)N2CCCC(O)(CO)C2)c1` (stereo not drawn) | N | N | N |
| 5 | `O=C(O)c1ccc(Nc2ncc3c(n2)-c2ccc(Cl)cc2C(c2c(F)cccc2F)=NC3)cc1` | N | N | N |
| 6 | `Cc1ccc(-c2nc3nc(C)cc(Nc4ccc(N(C)C)cc4)n3n2)cc1` | N | - | N |
| 7 | `CCOC(=O)c1sc2nc(N3CCCCC3)c3c(c2c1N)CC(C)(C)OC3` | N | N | N |
| 8 | `CCN(CC)C(=O)[C@@H]1C[C@H](N)CN1CC(=O)Nc1cn(C)nc1C` | N | N | N |
| 9 | `CN(CC1CC(=O)N(C(C)(C)C)C1)C(=O)CSc1nnc(N)s1` (stereo not drawn) | N | N | N |
| 10 | `CN1CCC=C(C(=O)N2c3ccccc3Sc3ccc(Cl)cc32)C1.O=C(O)CCC(=O)O` | N | N | N |
| 11 | `COCCn1ccnc1CN1C[C@H](NC(=O)CO)[C@@H](C(C)C)C1` | N | N | N |
| 12 | `Cc1nc2nc(CN)nn2c(C)c1CCC(=O)NCC1CCN(Cc2ccc(F)cc2)CC1` | N | - | Y |
| 13 | `O=c1n(CCn2cccc2)nc(CC2CCNCC2)n1-c1ccccc1` | N | N | N |
| 14 | `O=c1cc(-c2ccccc2)c2ccc(OCC(O)CN3CCCC3)cc2o1` (stereo not drawn) | N | N | N |
| 15 | `Cc1ccc2c(c1)C(Cc1nc3ccccc3c(=O)n1CCCO)C(=O)N2C(C)C` (stereo not drawn) | N | - | N |
| 16 | `Cc1ccc(C2=CC(c3cccc(Cl)c3)n3nc(CCCO)nc3N2)cc1` (stereo not drawn) | N | N | N |
| 17 | `O=C(NC[C@@H]1C[C@H](F)CN1)Nc1ccccc1Cc1ccccc1` | N | N | N |
| 18 | `Cc1cc(Cl)cc2c(N3C[C@H](C4CC4)[C@@H](N)C3)ccnc12` | N | N | N |
| 19 | `c1ccc(C(Cn2ccnc2)NC2Cc3ccccc3C2)cc1` (stereo not drawn) | N | N | N |
| 20 | `CCCCCCCNc1c2c3c(cccc3n(C)c1=O)C(=O)c1ccccc1-2` | N | N | N |
| 21 | `CCOCc1cc(=O)nc(SC)[nH]1` | N | N | N |
| 22 | `Cc1nnc2nc(-c3ccccc3)nc(-c3ccccc3)n12` | N | N | N |

The last 3 entries again:

SMILES,PreQ1,SAM-II,TPP
CCCCCCCNc1c2c3c(cccc3n(C)c1=O)C(=O)c1ccccc1-2,N,N,N
CCOCc1cc(=O)nc(SC)[nH]1,N,N,N
Cc1nnc2nc(-c3ccccc3)nc(-c3ccccc3)n12,N,N,N